Experimental findings from PubChem BioAssay AID1457 (National Center for Advancing Translational Sciences (NCATS), 2008) are described below.

This is a selection; strong and weak results do not stand in their true shares. Activity calls are given as the source filed them. Calls follow the shape of the dose curve; as a rule, active = well fitted inhibition curve with a large enough effect; inconclusive = small, poorly fitted or top-dose-only effect; inactive = no such curve, though single readings can be large or run the other way. Entries that show only a call come without a potency.
Potency is read from the fitted curve at half-maximal effect.

The assay in a line: qHTS Assay for Identifying the Cell-Membrane Permeable IMPase Inhibitors: Potentiation with Lithium.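 Also: IP1 builds up when IMPase is blocked and the TR-FRET signal falls; nearly all actives have a fitted effect of over 50% in size.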 The following applies: CHO-M1 cells, IP1 TR-FRET (IP-One), carbachol + lithium; series mostly up to 38.3 µM. The text has this:
NIH Chemical Genomics Center [NCGC]
NIH Molecular Libraries Probe Production centers Network [MLPCN]
Assay Submitter (PI): Wei Zheng
Lithium has been widely used for the treatment of bipolar disorder. But lithium has a narrow therapeutic index and it can cause side effects such as thirst, weight gain, tremor, polyuria and memory problems. Although the mechanism for lithium action in treatment of bipolar disorder is still not fully understood, inhibition of inositol monophosphatase (IMPase) and the subsequent depletion of the inositol pool in living cells have been implicated as the primary therapeutic benefit of lithium therapy. Therefore, a selective IMPase inhibitor with reduced side effects might be a good drug candidate to replace lithium for the treatment of bipolar disorder. Several IMPase inhibitors have been discovered previously. However, they are not suitable for therapeutic use because of their poor cell membrane penetrability or oral bioavailability; the development of new cell-permeable IMPase inhibitors is needed.
IMPase catalyzes the hydrolysis of inositol-1-phosphate (IP1) to release free inositol. Binding of an agonist to a Gq coupled GPCR results in the activation of PLC, which hydrolyzes the PIP2 to form inositol-1,4,5-trisphosphate (IP3) and diacyl glycerol (DAG). While DAG activates protein kinase C (PKC), IP3 triggers the elevation of intracellular free Ca2+. The IP3 is very rapidly inactivated by hydrolysis to IP2, IP1 and then inositol by a series of enzymes including IMPase. Free inositols are used for synthesis of PI and thus start another inositol cycle.
To identify new cell-permeable IMPase inhibitors, we developed a cell-based IMPase assay in which the cytosolic IP1 is measured by a time-resolved fluorescence resonance energy transfer (TR-FRET) assay. In this assay, an IP1 specific antibody is used to detect the labeled IP1 tracer. When the cell lysate contains the elevated IP1 due to the inhibition of IMPase, the TR-FRET between the labeled antibody and IP1 tracer is disrupted resulting in a reduction in the total signal. Since the TR-FRET is used, this cell-based assay is a homogenous assay without cell wash and medium change that is suitable for assay miniaturization and HTS. In this particular assay, a small amount of lithium is added to potentiate the response of weak activators.
NCGC Assay Protocol Summary:
A Chinese hamster ovary (CHO) cell line stably expressing the M1 receptor (CHO-M1) was obtained from ATCC and maintained in F-12 Kaighn's media (Invitrogen, Carlsbad, CA) supplemented with 10 % FBS, 100 units/ml penicillin, 100 ug/ml streptomycin and 250 ug/ml geneticin at 37C, 5% CO2 in a humidified atmosphere. Before the assay, aliquots of cells were frozen and stored at -135C. The assay was performed in 1536-well format. Data are reported for both the ratio of the two emission wavelengths, and also for the component 'donor' channel, Em2=620. […] AC50 values were determined from concentration-response data modeled with the standard Hill equation.
(1) Frozen CHO-M1 cells were thaw, washed once with fresh media and resuspended in F12K media containing 10% FBS, 100 units/ml penicillin and 100 ug/ml streptomycin. Cells were plated at 4ul/well (2000 cells) in white, tissue culture treated 1536-well plates, and then cultured at 37C, 5 % CO2 for 16 to 30 hours.
(2) Add 23 nl/well of compound in DMSO solution. The final titration for each compound was between 0.6 nM and 46 uM.
(4) Incubation at 37C, 5 % CO2 for 30 min.
(5) Add 1 ul/well of d2-conjugated IP1 (d2-IP1) and 1 ul/well of Eu+ cryptate conjugated anti-IP1 antibody (Eu+-Ab) prepared in the cell lysis buffer, both from the IP-One kit (Cisbio, MA).
(6) Incubate at room temperature for 10 minutes.
(7) Detect the assay plate (Ex = 320, Em1 =665 and Em2 620) in a ViewLux plate reader.
For the compound `Cc1ccc(-c2nc3c(cnn3-c3ccccc3)c(=O)o2)cc1`, the Potency entry was “inactive”.
In the case of `C/C(CC1CC2=C(CC1(C)C)C(C)(C)CCC2)=N\NC(N)=S` (configuration not stated) it was “inactive”.
For `COc1cc2ccccc2cc1C(=O)Nc1ccc(Cc2ccncc2)cc1`, the Potency entry was “inactive”.
In the case of `CCN(c1ccc(NC(=O)COC(=O)c2ccc(S(=O)(=O)N3CCCC3)cc2)cc1)C(C)C` it was “inactive”; in that of `CCOc1cc(C(=O)N2CCN=C2SC)cc(OCC)c1OCC`, “inactive”.
Take `Cc1ccc(CNc2ccc(O)cc2)cc1`: the Potency result was “inactive”.
As to `CC(C)(C)C1CCC2(CC1)C(C#N)=C(SCC(=O)Nc1ccccc1)NC(=O)C2C#N` (configuration not stated), the Potency entry was “inactive”.
Consider `O=C(c1nnsc1S(=O)c1ccc(Cl)cc1)N1CCOCC1` (configuration not stated), for which the Potency result is “inactive”.
In the case of `Cn1c(CCN2CCCCC2)nc2cc(NS(=O)(=O)c3ccccc3)ccc21` it was “inactive”; in that of `Cc1ccc(Cn2c(SCC(=O)NCC3CCCO3)nc3c(sc4ccccc43)c2=O)cc1` (configuration not stated), “inactive”.
Take `CCOC(=O)/C(C#N)=C/C1=C(N2CCCC2)CC(C)(CC)OC1` (configuration not stated): the Potency result was “inactive”.
As for `CCOC(=O)/C(C#N)=C\C1=C(N2CCCC2)CC(C)(CC)OC1` (configuration not stated), the Potency entry is “inactive”.
Regarding `Cc1c(OCC(=O)OC(C)C)ccc2c3c(c(=O)oc12)CCC3`, the Potency entry is “inactive”.
As for `O=C(CNC1CCCC1)Nc1ccc(N2CCCCCC2)cc1`, the entry is “inactive”; as for `COc1ccccc1CN1C[C@@H]2C[C@@H](c3ccc(C)c(C)c3)N3CCC[C@@]23C1=O`, “inactive”.
`NS(=O)(=O)c1ccc(NC(=O)c2ccccc2C(=O)N2CCCCC2)cc1`: the Potency entry was “inactive”.
Turning to `CCN(CC)CCCN1C(=O)C(O)=C(C(=O)c2cc3cccc(OC)c3o2)C1c1ccncc1` (configuration not stated), the Potency is active: 10 µM.
